Measurements taken from PubChem BioAssay AID330 (DTP/NCI, 2004).
The list is a part of this screen's results and no random one: it gathers tests that were run many times, whatever their T/C, doses with no T/C, and many T/C values between a quarter and a half above the control. Further doses and runs are listed elsewhere. T/C gives the treated animals as a percentage of the vehicle group. Some entries give survivors of the animals treated and no T/C: the source files T/C as zero there, which appears to mark a toxic dose or a test without result, not a measured value. Some doses without a T/C left all or most animals alive at the check, yet need not have been tolerated: survival well below the control is almost never listed, so the zero probably covers shortened survival too. Survivors were counted at the toxicity check, usually on the fifth day, unless a day is given; later deaths do not show. Schedules are NCI's codes, taken here to give the interval after Q, in days (D) or hours (H), and the number of doses after X. Some doses were run more than once; the results are listed from low to high. For survival time, this PubChem deposit counts one and a half times the control or more as active, and values a quarter to a half above the control carry no call in these data; other NCI protocols may use other cut-offs. Additions like (4×) give the number of equal values in this list. Some T/C values carry the count of animals alive at the toxicity check (mostly the fifth day); where none is given, no animal had died by that day.

System: P388 leukemia ip, CD2F1 mice, survival T/C
Test: NCI In Vivo Anticancer Drug Screen. Data for tumor model P388 Leukemia (intraperitoneal) in CD2F1 (CDF1) mice
Settings: T/C endpoint: median survival time, higher T/C = longer survival
[1] = dose: 240.0 mg/kg/injection, schedule: Q01DX005 (ip), vehicle: Klucel (hydroxypropylcellulose) (HPC)
[2] = dose: 25.0 mg/kg/injection, schedule: Q01DX009 (ip), vehicle: saline
[3] = dose: 200.0 mg/kg/injection, schedule: Q01DX009 (ip), vehicle: saline with Tween-80
[4] = dose: 50.0 mg/kg/injection, schedule: Q01DX009 (ip), vehicle: saline
[5] = dose: 200.0 mg/kg/injection, schedule: Q01DX005 (ip), vehicle: saline with Tween-80
[6] = dose: 50.0 mg/kg/injection, schedule: Q01DX009 (ip), vehicle: saline with Tween-80
[7] = dose: 400.0 mg/kg/injection, schedule: Q01DX001 (ip), vehicle: Klucel (hydroxypropylcellulose) (HPC)
[8] = dose: 25.0 mg/kg/injection, schedule: Q01DX001 (ip), vehicle: saline

CC(=O)N/N=C/C(C)(C)C(C)(C)/C=N/NC(C)=O
T/C (dose: 30.0 mg/kg/injection, schedule: Q01DX005 (ip), vehicle: Klucel (hydroxypropylcellulose) (HPC)): 129 % of control
T/C (dose: 60.0 mg/kg/injection, schedule: Q01DX005 (ip), vehicle: Klucel (hydroxypropylcellulose) (HPC)): 136 and 139 % of control
T/C (dose: 120.0 mg/kg/injection, schedule: Q01DX005 (ip), vehicle: Klucel (hydroxypropylcellulose) (HPC)): 141 % of control
survivor count [1]: 0 of 6

CN(CCCNc1c2ccccc2nc2ccccc12)CCCNc1c2ccccc2nc2ccccc12
T/C (dose: 2.5 mg/kg/injection, schedule: Q01DX009 (ip), vehicle: other): 130 % of control (2×)
T/C (dose: 5.0 mg/kg/injection, schedule: Q01DX009 (ip), vehicle: other): 131 [5 of 6 alive] and 144 % of control
survivor count (dose: 10.0 mg/kg/injection, schedule: Q01DX009 (ip), vehicle: other): 0 of 6 and 1 of 6
survivor count (dose: 20.0 mg/kg/injection, schedule: Q01DX009 (ip), vehicle: other): 0 of 6
survivor count (dose: 40.0 mg/kg/injection, schedule: Q01DX009 (ip), vehicle: other): 0 of 6

CC1=C(C)SC(=S)NN1
survivor count [2]: 0 of 6
survivor count (dose: 50.0 mg/kg/injection, schedule: Q01DX009 (ip), vehicle: suspension in saline): 0 of 6
survivor count (dose: 100.0 mg/kg/injection, schedule: Q01DX009 (ip), vehicle: suspension in saline): 1 of 6
survivor count (dose: 200.0 mg/kg/injection, schedule: Q01DX009 (ip), vehicle: suspension in saline): 0 of 6
survivor count (dose: 400.0 mg/kg/injection, schedule: Q01DX009 (ip), vehicle: suspension in saline): 0 of 6

CC1(C)CC2(C)OC2C2(C1)N=NC(=O)O2 (configuration not stated)
survivor count [3]: 5 of 6
survivor count (dose: 400.0 mg/kg/injection, schedule: Q01DX009 (ip), vehicle: saline with Tween-80): 0 of 6

O=[N+]([O-])c1cnc(Sc2ccncn2)c([N+](=O)[O-])c1
survivor count [4]: 4 of 6
survivor count (dose: 100.0 mg/kg/injection, schedule: Q01DX009 (ip), vehicle: saline): 3 of 6
survivor count (dose: 200.0 mg/kg/injection, schedule: Q01DX009 (ip), vehicle: saline): 0 of 6

O=C1OC2(CCCC2)OC(=O)C1=C/C=C/c1ccc([N+](=O)[O-])o1
survivor count (dose: 800.0 mg/kg/injection, schedule: Q04DX003 (ip), vehicle: saline with Tween-80): 3 of 6

COc1cc2c(c(OC)c1OC)-c1ccc(OC)c(=O)cc1[C@@H](N(C)Cc1ccccc1O)CC2
T/C (dose: 5.0 mg/kg/injection, schedule: Q01DX009 (ip), vehicle: Klucel (hydroxypropylcellulose) (HPC)): 125 % of control
T/C (dose: 10.0 mg/kg/injection, schedule: Q01DX009 (ip), vehicle: Klucel (hydroxypropylcellulose) (HPC)): 139 and 143 % of control
survivor count (dose: 40.0 mg/kg/injection, schedule: Q01DX009 (ip), vehicle: Klucel (hydroxypropylcellulose) (HPC)): 5 of 6

CC(=O)N(C(C)=O)c1cnc2c(nc3cc(C)ccn32)c1C
survivor count (dose: 400.0 mg/kg/injection, schedule: Q01DX001 (ip), vehicle: saline with Tween-80): 1 of 6

CCOC(OCC)C(C)(C)CNC
T/C (dose: 400.0 mg/kg/injection, schedule: Q01DX001 (ip), vehicle: saline sonified): 131 % of control

O=C(CNC(=O)c1ccccc1)NCC(=O)NC(Cc1ccccc1)C(=O)O (configuration not stated)
survivor count [5]: 0 of 6

COc1cccc(-c2nc(-c3ccccc3)nc(N(C)C)n2)c1O
survivor count [1]: 3 of 6

O=C1OCC/C1=C/O/C=C1\CCOC1=O
survivor count (dose: 240.0 mg/kg/injection, schedule: Q01DX005 (ip), vehicle: saline with Tween-80): 3 of 6

CC[n+]1ccc(Nc2ccc(NC(=O)c3ccc(Nc4cc[n+](CC)c5ccc([N+](=O)[O-])cc45)cc3)cc2)cc1
T/C (dose: 1.1 mg/kg/injection, schedule: Q01DX009 (ip), vehicle: saline): 136 % of control
T/C (dose: 1.65 mg/kg/injection, schedule: Q01DX009 (ip), vehicle: saline): 127 % of control
T/C (dose: 2.5 mg/kg/injection, schedule: Q01DX009 (ip), vehicle: saline): 131 % of control
T/C (dose: 3.75 mg/kg/injection, schedule: Q01DX009 (ip), vehicle: saline): 140 % of control
T/C (dose: 6.25 mg/kg/injection, schedule: Q04DX003 (ip), vehicle: saline): 136 % of control
T/C (dose: 7.0 mg/kg/injection, schedule: Q01DX009 (ip), vehicle: Klucel (hydroxypropylcellulose) (HPC)): 149 % of control
T/C (dose: 12.5 mg/kg/injection, schedule: Q04DX003 (ip), vehicle: saline): 145 % of control
survivor count (dose: 25.0 mg/kg/injection, schedule: Q01DX009 (ip), vehicle: Klucel (hydroxypropylcellulose) (HPC)): 4 of 6
survivor count (dose: 37.5 mg/kg/injection, schedule: Q01DX009 (ip), vehicle: Klucel (hydroxypropylcellulose) (HPC)): 0 of 6

O=C(OC1(c2nccc3ccccc23)CCN(CCc2ccccc2)CC1)c1ccccc1
survivor count [6]: 6 of 6
survivor count (dose: 100.0 mg/kg/injection, schedule: Q01DX009 (ip), vehicle: saline with Tween-80): 6 of 6
survivor count [3]: 5 of 6

O=C1OC(Cc2ccccc2)=C(Cl)C(Cl)(Cc2ccccc2)C1Cl (configuration not stated)
survivor count [7]: 4 of 6

COC1=C(C)C(=O)c2c(c(C=O)c(Cl)n2C)C1=O
survivor count [7]: 3 of 6

CN(N=O)C(N)=O
survivor count (dose: 12.5 mg/kg/injection, schedule: Q01DX009 (ip), vehicle: saline): 6 of 6
T/C (dose: 12.5 mg/kg/injection, schedule: Q04DX003 (ip), vehicle: saline with Tween-80): 127 % of control
T/C (dose: 16.5 mg/kg/injection, schedule: Q04DX003 (ip), vehicle: saline with Tween-80): 145 % of control
T/C (dose: 20.0 mg/kg/injection, schedule: Q04DX003 (ip), vehicle: saline with Tween-80): 147 % of control
survivor count [2]: 5 of 6
T/C (dose: 25.0 mg/kg/injection, schedule: Q04DX003 (ip), vehicle: saline with Tween-80): 136 % of control
survivor count [6]: 6 of 6
survivor count [4]: 6 of 6

CC1(C)CC[C@H](C2=CC(=O)c3c(O)ccc(O)c3C2=O)O1
survivor count (dose: 20.0 mg/kg/injection, schedule: Q01DX009 (ip), vehicle: Klucel (hydroxypropylcellulose) (HPC)): 4 of 6

CNCCC1CCCCC1
survivor count (dose: 100.0 mg/kg/injection, schedule: Q01DX005 (ip), vehicle: Klucel (hydroxypropylcellulose) (HPC)): 3 of 5
survivor count (dose: 200.0 mg/kg/injection, schedule: Q01DX005 (ip), vehicle: Klucel (hydroxypropylcellulose) (HPC)): 0 of 5

COc1cc(Nc2ccccc2)c2c(c1N)C(=O)c1ccccc1C2=O
survivor count [5]: 0 of 5

CC1C[P+](c2ccccc2)(c2ccccc2)Cc2ccccc21 (configuration not stated)
survivor count (dose: 12.5 mg/kg/injection, schedule: Q01DX001 (ip), vehicle: saline): 2 of 6
T/C [8]: 155 % of control
survivor count [8]: 0 of 6, 1 of 6, 3 of 6
survivor count (dose: 50.0 mg/kg/injection, schedule: Q01DX001 (ip), vehicle: saline): 0 of 6
survivor count (dose: 100.0 mg/kg/injection, schedule: Q01DX001 (ip), vehicle: saline): 0 of 6 and 1 of 6
survivor count (dose: 200.0 mg/kg/injection, schedule: Q01DX001 (ip), vehicle: saline): 0 of 6
survivor count (dose: 400.0 mg/kg/injection, schedule: Q01DX001 (ip), vehicle: saline): 0 of 6

CC1CCC[P+](CI)(c2ccccc2)CC1 (configuration not stated)
survivor count (dose: 100.0 mg/kg/injection, schedule: Q04DX002 (ip), vehicle: saline with Tween-80): 1 of 6
survivor count (dose: 200.0 mg/kg/injection, schedule: Q04DX002 (ip), vehicle: saline with Tween-80): 0 of 6
survivor count (dose: 400.0 mg/kg/injection, schedule: Q04DX002 (ip), vehicle: saline with Tween-80): 0 of 6

Cc1ccc2c(c1)=N/C(=N/c1[nH]c(O)c3ccccc13)N=2
survivor count (dose: 12.5 mg/kg/injection, schedule: Q01DX009 (ip), vehicle: saline with Tween-80): 6 of 6
survivor count (dose: 25.0 mg/kg/injection, schedule: Q01DX009 (ip), vehicle: saline with Tween-80): 6 of 6
survivor count [3]: 6 of 6
